Source: US20210401926A1, “PHARMACEUTICAL FORMULATIONS OF PEPTIDE INHIBITORS” (CANIMGUIDE THERAPEUTICS AB, priority 2018, published 2021)
These are yes or no findings as the source states them, for the method shown. Some results given as binding are weak or reduced against the parent protein; the word gives no strength.

Target: T1, P3028 (…)
T1 sequence (peptide): VFDEFKPLVEEPQNLIK
Experiment: conclusion drawn from the PBMC activation experiments of Example 2 (cancer sera); no direct binding assay in this filing

B1: P28R (…) (peptide)
peptide: KKLDTFFVKLSLFTER
With B1 the binding was “binds”.

B2: P28 core (peptide 32230, FFVKLS) (peptide)
peptide: FFVKLS
B2 was tested, and the binding was “binds”.
